Patent US20230310539A1, “TREATMENT OF DISEASE WITH EPOR ANTAGONIST” (Epo-Med Inc., priority 2020, published 2023)
Not every detail of the peptide structures is certain; ends, links or a residue may be inferred. Where a SMILES comes first, the peptide text is derived from it. Bridges are numbered along the chain shown (N, C = ends). [ ]: non-standard residue; d: D form. Ala(benzothiazol-2-yl) = N[C@@H](Cc1nc2ccccc2s1)C(=O)O

How the values were obtained:
[1] = tested on: UT-7/Epo cells; experiment: WST assay, Epo dependent cancer cell growth; format: cell-based, human; details: ERA-350 0.1-100 μM without rhEpo, 4 days
[2] = tested on: AsPC-1 cells; experiment: WST assay, effect of rhEpo on suppression of AsPC-1 cell growth; format: cell-based, human; details: ERA-350 50 μM with rhEpo 1-100 U/mL, three days
[3] = tested on: HCC1806 cells; experiment: WST assay, effect of rhEpo on suppression of HCC1806 cell growth; format: cell-based, human; details: ERA-350 50 μM with rhEpo 1-100 U/mL, three days
[4] = tested on: phosphorylation of EpoR and Jak2 in UT-7/Epo cells; experiment: Western blot of EpoR and Jak2 phosphorylation in UT-7/Epo cells; format: cell-based, human; details: ERA-350 100 μM overnight, rhEpo 10 U/mL for 5 minutes
[5] = tested on: M174E mutant EpoR expressing 293T cells (vs wild-type or H138K/E141K mutant EpoR); experiment: WST assay on wild-type or mutant EpoR overexpressing 293T cells; format: cell-based, human; details: 50 μM, three days
[6] = tested on: AsPC-1 tumor; experiment: Antitumor effect in AsPC-1 cancer bearing mice (tumor volume); format: in vivo, mouse; details: ERA-350 0.2 mg/day intraperitoneally, twice a week for 4 weeks, nude mice
[7] = tested on: phosphorylation of Jak2 and STAT3 in AsPC-1 cells; experiment: Western blot of Epo signaling related molecules in AsPC-1 cells; format: cell-based, human; details: ERA-350 100 μM
[8] = tested on: BT-474-R cells; experiment: WST assay, Herceptin resistant breast cancer cell growth; format: cell-based, human; details: single agent, five days; ERA-350 3-100 μM, trastuzumab 0.001-100 μg/mL
[9] = tested on: phosphorylation of Jak2 and STAT3 in HCC1806 cells; experiment: Western blot of Epo signaling related molecules in HCC1806 cells; format: cell-based, human; details: ERA-350 100 μM
[10] = then rhEpo 10 U/mL for 5 minutes

CSCC[C@@H]1NC(=O)[C@@H]2CCCN2C(=O)CNC(=O)[C@H](Cc2ccc(O)cc2)NC(=O)[C@H](Cc2c[nH]cn2)NC(=O)[C@@H](NC(=O)[C@H](CO)NC(C)=O)CSSC[C@@H](C(=O)N[C@@H](CCCCN)C(N)=O)NC(=O)[C@H](C(C)C)NC(=O)[C@H](Cc2nc3ccccc3s2)NC(=O)[C@H]([C@@H](C)O)NC1=O [ERA-350] (Ac-SCHYGPMT[Ala(benzothiazol-2-yl)]VCK-NH2; disulfide 2-11)
Proliferation of UT-7/Epo cells (absorbance at 450 nm) [1]: did not result in proliferation
Effect of erythropoietin on suppression of cell growth (inhibition percentage relative to control) [2]: not inhibited by addition of erythropoietin
Effect of erythropoietin on suppression of cell growth (inhibition percentage relative to control) [3]: not inhibited by addition of erythropoietin
Phosphorylation of EpoR induced by erythropoietin [4]: inhibit
Phosphorylation of Jak2 induced by erythropoietin [4]: inhibit
Inhibitory effect on growth of M174E mutant EpoR expressing strain compared to wild-type or H138K/E141K mutant EpoR expressing strain [5]: decreased
Antitumor effect (relative tumor volume) [6]: clear antitumor effect
Phosphorylation of Jak2 ([7]; 6 hours pre-incubation): suppressed
Phosphorylation of STAT3 ([7]; 6 hours pre-incubation): suppressed
Effect of erythropoietin on suppression of Jak2 and STAT3 phosphorylation [7, 10]: not inhibited by addition of erythropoietin
Proliferation inhibitory action on BT-474-R cells (inhibition percentage relative to control) [8]: potent proliferation inhibitory action
Phosphorylation of Jak2 ([9]; 6 hours pre-incubation): suppressed
Phosphorylation of STAT3 ([9]; 6 hours pre-incubation): suppressed
Effect of erythropoietin on suppression of Jak2 and STAT3 phosphorylation [9, 10]: not inhibited by addition of erythropoietin
